From article PMC7819943, “Rice protein-binding microarrays: a tool to detect cis-acting elements near promoter regions in rice”
The list shows a part of the results.

Amino acid sequences for entries named in this document (tags omitted).
UniProt Q0JBA9, entry or part of it: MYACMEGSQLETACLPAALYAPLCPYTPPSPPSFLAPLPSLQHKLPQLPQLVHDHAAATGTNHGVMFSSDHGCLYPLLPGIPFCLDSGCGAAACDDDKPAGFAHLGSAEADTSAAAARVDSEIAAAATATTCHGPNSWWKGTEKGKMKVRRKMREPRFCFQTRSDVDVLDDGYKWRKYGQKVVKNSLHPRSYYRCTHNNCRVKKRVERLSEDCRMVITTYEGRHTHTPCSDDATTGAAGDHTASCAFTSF

target: OsWRKY34 (Oryza sativa, UniProt Q0JBA9 1-250); experiment: protein-binding microarray (RPBM); PBS, 2% BSA, 51.3 ng/ul salmon testes DNA, 50 uM zinc acetate, 200 nM TF, 25 C, 1 h; high values mean tight binding; settings: protein: recombinant; tags: N-terminal polyhistidine and DsRed monomer fusion (pET32a); label: CyDye5-dUTP incorporated in the synthesized complementary strand; 3' TTTTT single-stranded linker to array surface; dsDNA, one strand shown
In short: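 The binding signal is fluorescence intensity per feature, in arbitrary units, read on an Axon 4000B scanner. Polyhistidine- and DsRed-tagged transcription factors (N-terminal fusions) from E. coli BL21-CodonPlus were purified on Ni–NTA and applied at 200 nM for 1 h at 25 °C to a double-stranded, BSA-blocked custom Agilent array in buffer with 50 µM zinc acetate.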

Going from “CTACACATGTCGTCGTCCTTCTTATCCTTTTCATTTTCATCGGAGTCACCTAGTGCAG” to “CACAAACTTTCAACTTTTTTGTCACATCGTTTCAATTTTACGGAGTCACCTAGTGCAG”, the binding signal rises from 9410 fluorescence intensity (a.u.) to 9800 fluorescence intensity (a.u.).

Going from “AACAAACAACTCAATTTATTTATCTTGTCATACGGCAATCCGGAGTCACCTAGTGCAG” to “ATTTATCTGCACCACTGAATTTAATCTGTACCCAATATTCCGGAGTCACCTAGTGCAG”, the binding signal falls from 10100 fluorescence intensity (a.u.) to 9500 fluorescence intensity (a.u.).

Compared with “CCGCCGCCGCCGAAGCTCTCCACCACCGAATGGTCAATCTCGGAGTCACCTAGTGCAG”, “AGCAGTAGTCAGTTCCACTCCTACTAGTACTTCTCTCCACCGGAGTCACCTAGTGCAG” is higher in binding signal: 8920 fluorescence intensity (a.u.) for the first, 10300 fluorescence intensity (a.u.) for the second.

Going from “TGTCCGTGGTCTCTTTTTATGCGAGAATATGATTTCCGGTCGGAGTCACCTAGTGCAG” to “AGGCGAGCGGCGCCGCGGCGTCGTGGGTGGTGGGGCGGATCGGAGTCACCTAGTGCAG”, the binding signal rises from 8070 fluorescence intensity (a.u.) to 9650 fluorescence intensity (a.u.).

First: CTTTTTCAAGCCATGGTTTGTCTTGGAGCTTTATATATTACGGAGTCACCTAGTGCAG
Second: GTACCAATCGTCTCATCATGATCTAAGCCAAATCTAAACACGGAGTCACCTAGTGCAG
The binding signal of the first is higher: 9870 fluorescence intensity (a.u.) for the first, 9450 fluorescence intensity (a.u.) for the second.

Compared with “TTCATATTTTTGCTCTATTCCCGTCACTGCATCCGTTCTACGGAGTCACCTAGTGCAG”, “TTTCTTGGTGCGTGGTTACTTTCTTAGGGATGACAGGTGGCGGAGTCACCTAGTGCAG” is lower in binding signal: 13000 fluorescence intensity (a.u.) for the first, 9830 fluorescence intensity (a.u.) for the second.

Compared with “TTTTTTTATTCGTGTCTGAAAATCATTTCCGATATCCGGTCGGAGTCACCTAGTGCAG”, “GGGAGGGAGGGATCAAATGCAGGCAGTTCAATAGAAAAAGCGGAGTCACCTAGTGCAG” is higher in binding signal: 8470 fluorescence intensity (a.u.) for the first, 8960 fluorescence intensity (a.u.) for the second.

Compared with “GTTTGCGTTCGTTCATCTGCCTGCGTTTTCCACGCCTCTCCGGAGTCACCTAGTGCAG”, “GTAAATATACCTATTCTGCTCATTTTGCCCTTGTTGGAGTCGGAGTCACCTAGTGCAG” is lower in binding signal: 11600 fluorescence intensity (a.u.) for the first, 9100 fluorescence intensity (a.u.) for the second.

Going from “CCTTTTTCCCTTTATTTCCGTATTGATTGCGCAATTATTCCGGAGTCACCTAGTGCAG” to “GTTAACTTTTTAGCACATGTTTGACCGTTCGTCTTATTCACGGAGTCACCTAGTGCAG”, the binding signal rises from 10500 fluorescence intensity (a.u.) to 12600 fluorescence intensity (a.u.).

First: CCACTGCTCCTCACGCCGTTCACATTACCATTCTAATAAACGGAGTCACCTAGTGCAG
Second: TGTCGTCGTCCCGGTCTTCGTCGTAGTCGTCTCCTGCCGGCGGAGTCACCTAGTGCAG
The binding signal of the first is lower: 8070 fluorescence intensity (a.u.) for the first, 11100 fluorescence intensity (a.u.) for the second.

Compared with “CTCTTATCTCACCCTCTGCAATCATCTTACTACCTCCGTCCGGAGTCACCTAGTGCAG”, “GCTGCCCTGCCACCTTCGCCTCACGAACGCCAGCCTCGCTCGGAGTCACCTAGTGCAG” is lower in binding signal: 9290 fluorescence intensity (a.u.) for the first, 8300 fluorescence intensity (a.u.) for the second.

Going from “CTTTCTCCTGTGTGATTTACGTCTTGTAGTTTCTGTGAGTCGGAGTCACCTAGTGCAG” to “CTGGTTTTGTGTTTCGAGAACGTTTTTTATCCCGATGACACGGAGTCACCTAGTGCAG”, the binding signal rises from 8670 fluorescence intensity (a.u.) to 11400 fluorescence intensity (a.u.).

Going from “TTTTTTGAATAAGACAAATGGAAAAAGTCAACGGCGTCATCGGAGTCACCTAGTGCAG” to “AAATTGTCCTGAAAGCTCTGTGACCGAACCAATGTCTTTGCGGAGTCACCTAGTGCAG”, the binding signal falls from 9360 fluorescence intensity (a.u.) to 8370 fluorescence intensity (a.u.).

Compared with “GCGCCACTCTCGCTGACTCGCTCGCTGCCAAGCTCGCCGGCGGAGTCACCTAGTGCAG”, “GATCGTGACGACTCACCAAGGCCTAGGATTATTTATGTATCGGAGTCACCTAGTGCAG” is lower in binding signal: 8440 fluorescence intensity (a.u.) for the first, 8040 fluorescence intensity (a.u.) for the second.

Compared with “ATAGCAGCTCATAGTATTCTCCATTGCAATCCTGTCGTCTCGGAGTCACCTAGTGCAG”, “TGTCAATTTGTATTTTGAAGGGTTGGTCCAATACACTAAGCGGAGTCACCTAGTGCAG” is lower in binding signal: 8150 fluorescence intensity (a.u.) for the first, 8020 fluorescence intensity (a.u.) for the second.

Compared with “TTATACTAATAGTTGGCGTATCATATCTGGTTTTATAATTCGGAGTCACCTAGTGCAG”, “GGCATATAATAGATTCTCTCTTTCTCTCTTACTCCTTTTTCGGAGTCACCTAGTGCAG” is lower in binding signal: 8720 fluorescence intensity (a.u.) for the first, 8150 fluorescence intensity (a.u.) for the second.

First: TCGCTAACCTCGCCCACCACTTTCCTGATCTAGCCCCATACGGAGTCACCTAGTGCAG
Second: TTCTTCTTTCATAAAACCACATCATCTTACTTTTACATTTCGGAGTCACCTAGTGCAG
The binding signal of the first is lower: 8960 fluorescence intensity (a.u.) for the first, 9390 fluorescence intensity (a.u.) for the second.

Compared with “CTCGCTTCTTCTTCCTTCTTTCCGTCCTCGCCGCCCCGCGCGGAGTCACCTAGTGCAG”, “GATGTCAACATTGGTCTGTGTGGTGTGTGCTCCGGATGATCGGAGTCACCTAGTGCAG” is higher in binding signal: 8470 fluorescence intensity (a.u.) for the first, 11200 fluorescence intensity (a.u.) for the second.

First: CCGGCCATCTGCATTGCATTTGCTCTCTCTCTCTCTCTCTCGGAGTCACCTAGTGCAG
Second: GTGGGGCGGTGGCTGCTGCATTGCATTGGGCGGGAGAGATCGGAGTCACCTAGTGCAG
The binding signal of the first is lower: 10400 fluorescence intensity (a.u.) for the first, 17200 fluorescence intensity (a.u.) for the second.

First: TACTGTTTAAAATTATCCAAGGCTTTTATGGGGCGGGCTTCGGAGTCACCTAGTGCAG
Second: CTAGGAAGCCACCAACCGCGGCGTTTGATCTCAGGTTTGACGGAGTCACCTAGTGCAG
The binding signal of the first is higher: 14800 fluorescence intensity (a.u.) for the first, 8230 fluorescence intensity (a.u.) for the second.

First: CAATGTATGATCACGTCTCCTTCTGTTCTTGGTCTGTCAACGGAGTCACCTAGTGCAG
Second: ATTCCACTCATATTATTACATGAAATTATTTTCTCCTCAACGGAGTCACCTAGTGCAG
The binding signal of the first is higher: 10300 fluorescence intensity (a.u.) for the first, 9010 fluorescence intensity (a.u.) for the second.

Compared with “TTGGTCTGTTTGCTTCTATTTGAACTTCACTCTTACAGAGCGGAGTCACCTAGTGCAG”, “TCATCTCACGCTGTTGACTTTCTCTTTTTTTTTCGGGGAGCGGAGTCACCTAGTGCAG” is higher in binding signal: 9240 fluorescence intensity (a.u.) for the first, 18000 fluorescence intensity (a.u.) for the second.

Going from “CATCCATCCTGTGCATTACTTCACTATATCAGAAGAATTCCGGAGTCACCTAGTGCAG” to “CTCTCACACGCACGCGCGTCGCCGCCACTACACTCTCATGCGGAGTCACCTAGTGCAG”, the binding signal rises from 9070 fluorescence intensity (a.u.) to 10100 fluorescence intensity (a.u.).

Compared with “GATGTTTTTCATGCAACATATGGCTTTAACACTCACAGTTCGGAGTCACCTAGTGCAG”, “TCCGACGGCCGCCTCATCATCGACTTCATCGGTACGCCTCCGGAGTCACCTAGTGCAG” is lower in binding signal: 9000 fluorescence intensity (a.u.) for the first, 8670 fluorescence intensity (a.u.) for the second.

Compared with “CTAGCCCATCGTTAATCTAGTACCACCTATTTTATATACTCGGAGTCACCTAGTGCAG”, “AGGAGGTGCTTATAGAGGTATGATGTGCGGTGTTTATGTTCGGAGTCACCTAGTGCAG” is higher in binding signal: 10400 fluorescence intensity (a.u.) for the first, 10500 fluorescence intensity (a.u.) for the second.

Compared with “CCGGAGCCGCTTCTTCTCCGTCCGCCGCCGGAGCAGGTCCCGGAGTCACCTAGTGCAG”, “TTCCCATACCAAACACCAGCTCACACACACTGTCTTCCAGCGGAGTCACCTAGTGCAG” is higher in binding signal: 8140 fluorescence intensity (a.u.) for the first, 8650 fluorescence intensity (a.u.) for the second.

First: GGAATGGAGGGAGCAGTATCACGTCGTTAAAGTTGTTGTACGGAGTCACCTAGTGCAG
Second: CATGCCATTTCGTCCCTCCATCTACCCGCTCCACGCCGCCCGGAGTCACCTAGTGCAG
The binding signal of the first is lower: 10100 fluorescence intensity (a.u.) for the first, 10600 fluorescence intensity (a.u.) for the second.
